Publication PMC12608094, “STN1 Shields CTC1 From TRIM32‐Mediated Ubiquitination to Prevent Cellular Aging” (Aging Cell, 2025)
No constants are given. Whether binding was seen depends on the method and setting. Binding seen in cells or lysates may run through a third protein. Some results given as binding are weak or reduced against the parent protein; the word gives no strength. Where a sequence is shown, tags or fusion partners need not be part of it.

By UniProt entry, the sequences of proteins in these tests, tags left out.
UniProt Q13049: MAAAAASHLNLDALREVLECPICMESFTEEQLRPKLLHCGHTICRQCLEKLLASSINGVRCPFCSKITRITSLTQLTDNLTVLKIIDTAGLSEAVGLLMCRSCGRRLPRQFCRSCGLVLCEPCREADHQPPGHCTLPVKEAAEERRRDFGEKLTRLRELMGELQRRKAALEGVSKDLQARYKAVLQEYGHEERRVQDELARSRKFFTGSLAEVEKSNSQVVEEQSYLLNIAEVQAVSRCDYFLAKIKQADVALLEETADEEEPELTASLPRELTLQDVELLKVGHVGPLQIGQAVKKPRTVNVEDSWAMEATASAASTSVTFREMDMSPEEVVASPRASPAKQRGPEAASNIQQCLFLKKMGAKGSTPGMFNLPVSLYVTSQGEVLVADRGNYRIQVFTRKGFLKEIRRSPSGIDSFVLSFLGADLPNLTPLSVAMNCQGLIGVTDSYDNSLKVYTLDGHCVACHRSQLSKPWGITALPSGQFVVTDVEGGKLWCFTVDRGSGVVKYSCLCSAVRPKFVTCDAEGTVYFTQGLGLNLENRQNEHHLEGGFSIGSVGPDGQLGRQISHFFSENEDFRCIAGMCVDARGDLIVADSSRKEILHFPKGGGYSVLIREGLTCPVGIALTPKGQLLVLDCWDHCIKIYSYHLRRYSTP

Key:
[1] = target: T1, Flag-tagged CTC1 (wild type) (human, UniProt Q2NKJ3 1-1217); experiment: co-IP; HEK293T lysates in NP-40 lysis buffer (20 mM Tris pH 8.0, 100 mM NaCl, 1 mM MgCl2, 0.1% Igepal); Flag-CTC1 precipitated with Flag M2 beads, 4°C, 2 h; Western blot
T1 sequence (looked up): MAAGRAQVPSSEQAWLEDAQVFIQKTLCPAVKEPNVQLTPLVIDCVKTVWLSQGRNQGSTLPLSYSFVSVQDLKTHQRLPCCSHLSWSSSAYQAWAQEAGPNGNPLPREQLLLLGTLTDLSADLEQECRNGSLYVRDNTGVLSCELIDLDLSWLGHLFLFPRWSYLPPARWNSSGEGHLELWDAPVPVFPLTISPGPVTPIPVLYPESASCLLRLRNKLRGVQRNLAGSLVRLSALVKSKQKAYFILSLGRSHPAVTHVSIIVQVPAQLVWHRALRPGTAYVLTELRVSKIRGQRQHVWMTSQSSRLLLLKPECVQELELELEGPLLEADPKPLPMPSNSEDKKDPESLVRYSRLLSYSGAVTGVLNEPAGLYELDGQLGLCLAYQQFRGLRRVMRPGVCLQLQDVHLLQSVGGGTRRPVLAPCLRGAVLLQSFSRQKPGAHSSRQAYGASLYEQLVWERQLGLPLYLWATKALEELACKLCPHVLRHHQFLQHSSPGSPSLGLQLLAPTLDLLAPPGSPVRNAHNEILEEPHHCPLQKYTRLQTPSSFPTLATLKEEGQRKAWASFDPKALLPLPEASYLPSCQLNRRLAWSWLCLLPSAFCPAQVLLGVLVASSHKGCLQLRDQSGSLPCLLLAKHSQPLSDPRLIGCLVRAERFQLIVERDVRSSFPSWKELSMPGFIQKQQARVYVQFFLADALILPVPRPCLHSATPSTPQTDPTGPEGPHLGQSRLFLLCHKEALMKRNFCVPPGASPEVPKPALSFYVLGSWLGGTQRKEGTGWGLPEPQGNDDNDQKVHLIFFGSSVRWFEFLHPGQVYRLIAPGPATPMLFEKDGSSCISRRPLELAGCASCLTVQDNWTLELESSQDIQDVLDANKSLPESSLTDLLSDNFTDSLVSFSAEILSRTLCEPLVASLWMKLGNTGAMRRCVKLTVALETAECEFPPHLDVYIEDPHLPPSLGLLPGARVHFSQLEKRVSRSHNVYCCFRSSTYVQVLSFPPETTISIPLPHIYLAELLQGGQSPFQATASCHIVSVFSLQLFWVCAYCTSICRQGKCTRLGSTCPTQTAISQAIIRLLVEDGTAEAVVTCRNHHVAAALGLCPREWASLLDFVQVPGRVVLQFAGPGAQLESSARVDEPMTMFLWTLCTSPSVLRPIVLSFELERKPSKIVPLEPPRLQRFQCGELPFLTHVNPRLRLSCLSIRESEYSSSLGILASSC

[2] = target: GST-tagged TRIM32 expressed in HEK293T cells (human) (UniProt Q13049); experiment: pull-down; GST pull-down from HEK293T cell lysates with Glutathione-sepharose beads; GST-TRIM32 with WT or 1196Δ7 Flag-CTC1, with or without HA-STN1

Molecule: GST-tagged TRIM32 expressed in HEK293T cells (from UniProt Q13049 1-653) (enzyme)
- binding [1]: binds

B1: Flag-tagged CTC1 (wild type) (protein, UniProt Q2NKJ3 1-1217)
chain: MAAGRAQVPSSEQAWLEDAQVFIQKTLCPAVKEPNVQLTPLVIDCVKTVWLSQGRNQGSTLPLSYSFVSVQDLKTHQRLPCCSHLSWSSSAYQAWAQEAGPNGNPLPREQLLLLGTLTDLSADLEQECRNGSLYVRDNTGVLSCELIDLDLSWLGHLFLFPRWSYLPPARWNSSGEGHLELWDAPVPVFPLTISPGPVTPIPVLYPESASCLLRLRNKLRGVQRNLAGSLVRLSALVKSKQKAYFILSLGRSHPAVTHVSIIVQVPAQLVWHRALRPGTAYVLTELRVSKIRGQRQHVWMTSQSSRLLLLKPECVQELELELEGPLLEADPKPLPMPSNSEDKKDPESLVRYSRLLSYSGAVTGVLNEPAGLYELDGQLGLCLAYQQFRGLRRVMRPGVCLQLQDVHLLQSVGGGTRRPVLAPCLRGAVLLQSFSRQKPGAHSSRQAYGASLYEQLVWERQLGLPLYLWATKALEELACKLCPHVLRHHQFLQHSSPGSPSLGLQLLAPTLDLLAPPGSPVRNAHNEILEEPHHCPLQKYTRLQTPSSFPTLATLKEEGQRKAWASFDPKALLPLPEASYLPSCQLNRRLAWSWLCLLPSAFCPAQVLLGVLVASSHKGCLQLRDQSGSLPCLLLAKHSQPLSDPRLIGCLVRAERFQLIVERDVRSSFPSWKELSMPGFIQKQQARVYVQFFLADALILPVPRPCLHSATPSTPQTDPTGPEGPHLGQSRLFLLCHKEALMKRNFCVPPGASPEVPKPALSFYVLGSWLGGTQRKEGTGWGLPEPQGNDDNDQKVHLIFFGSSVRWFEFLHPGQVYRLIAPGPATPMLFEKDGSSCISRRPLELAGCASCLTVQDNWTLELESSQDIQDVLDANKSLPESSLTDLLSDNFTDSLVSFSAEILSRTLCEPLVASLWMKLGNTGAMRRCVKLTVALETAECEFPPHLDVYIEDPHLPPSLGLLPGARVHFSQLEKRVSRSHNVYCCFRSSTYVQVLSFPPETTISIPLPHIYLAELLQGGQSPFQATASCHIVSVFSLQLFWVCAYCTSICRQGKCTRLGSTCPTQTAISQAIIRLLVEDGTAEAVVTCRNHHVAAALGLCPREWASLLDFVQVPGRVVLQFAGPGAQLESSARVDEPMTMFLWTLCTSPSVLRPIVLSFELERKPSKIVPLEPPRLQRFQCGELPFLTHVNPRLRLSCLSIRESEYSSSLGILASSC
- binding [2]: binds

B2: Flag-tagged CTC1 1196Δ7 (protein, UniProt Q2NKJ3)
chain: MAAGRAQVPSSEQAWLEDAQVFIQKTLCPAVKEPNVQLTPLVIDCVKTVWLSQGRNQGSTLPLSYSFVSVQDLKTHQRLPCCSHLSWSSSAYQAWAQEAGPNGNPLPREQLLLLGTLTDLSADLEQECRNGSLYVRDNTGVLSCELIDLDLSWLGHLFLFPRWSYLPPARWNSSGEGHLELWDAPVPVFPLTISPGPVTPIPVLYPESASCLLRLRNKLRGVQRNLAGSLVRLSALVKSKQKAYFILSLGRSHPAVTHVSIIVQVPAQLVWHRALRPGTAYVLTELRVSKIRGQRQHVWMTSQSSRLLLLKPECVQELELELEGPLLEADPKPLPMPSNSEDKKDPESLVRYSRLLSYSGAVTGVLNEPAGLYELDGQLGLCLAYQQFRGLRRVMRPGVCLQLQDVHLLQSVGGGTRRPVLAPCLRGAVLLQSFSRQKPGAHSSRQAYGASLYEQLVWERQLGLPLYLWATKALEELACKLCPHVLRHHQFLQHSSPGSPSLGLQLLAPTLDLLAPPGSPVRNAHNEILEEPHHCPLQKYTRLQTPSSFPTLATLKEEGQRKAWASFDPKALLPLPEASYLPSCQLNRRLAWSWLCLLPSAFCPAQVLLGVLVASSHKGCLQLRDQSGSLPCLLLAKHSQPLSDPRLIGCLVRAERFQLIVERDVRSSFPSWKELSMPGFIQKQQARVYVQFFLADALILPVPRPCLHSATPSTPQTDPTGPEGPHLGQSRLFLLCHKEALMKRNFCVPPGASPEVPKPALSFYVLGSWLGGTQRKEGTGWGLPEPQGNDDNDQKVHLIFFGSSVRWFEFLHPGQVYRLIAPGPATPMLFEKDGSSCISRRPLELAGCASCLTVQDNWTLELESSQDIQDVLDANKSLPESSLTDLLSDNFTDSLVSFSAEILSRTLCEPLVASLWMKLGNTGAMRRCVKLTVALETAECEFPPHLDVYIEDPHLPPSLGLLPGARVHFSQLEKRVSRSHNVYCCFRSSTYVQVLSFPPETTISIPLPHIYLAELLQGGQSPFQATASCHIVSVFSLQLFWVCAYCTSICRQGKCTRLGSTCPTQTAISQAIIRLLVEDGTAEAVVTCRNHHVAAALGLCPREWASLLDFVQVPGRVVLQFAGPGAQLESSARVDEPMTMFLWTLCTSPSVLRPIVLSFELERKPSKIVPLEPPRLQRFQCGELPFLTHVNPRLRESEYSSSLGILASSC
- binding [2]: binds
